Assay results reported in patent US20130143299A1.
No constants are given. Whether binding was seen depends on the method and setting. In cells and extracts the contact can be indirect. Some binding calls cover weakened binding; strength is not graded here. Where a sequence is shown, tags or fusion partners need not be part of it.

Amino acid sequences for entries named in this document (tags omitted). Residues count along the entry.
UniProt P28482, residues 2-360: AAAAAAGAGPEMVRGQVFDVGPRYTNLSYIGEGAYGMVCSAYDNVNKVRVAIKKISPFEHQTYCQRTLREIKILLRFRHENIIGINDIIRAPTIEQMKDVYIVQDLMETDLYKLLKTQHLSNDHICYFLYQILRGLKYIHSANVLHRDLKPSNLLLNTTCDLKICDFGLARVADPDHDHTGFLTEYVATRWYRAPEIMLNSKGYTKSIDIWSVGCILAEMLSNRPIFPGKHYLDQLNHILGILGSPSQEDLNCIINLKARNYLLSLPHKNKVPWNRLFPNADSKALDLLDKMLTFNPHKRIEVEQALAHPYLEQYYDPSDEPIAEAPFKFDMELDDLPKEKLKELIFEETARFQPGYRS
UniProt P27361, residues 2-379: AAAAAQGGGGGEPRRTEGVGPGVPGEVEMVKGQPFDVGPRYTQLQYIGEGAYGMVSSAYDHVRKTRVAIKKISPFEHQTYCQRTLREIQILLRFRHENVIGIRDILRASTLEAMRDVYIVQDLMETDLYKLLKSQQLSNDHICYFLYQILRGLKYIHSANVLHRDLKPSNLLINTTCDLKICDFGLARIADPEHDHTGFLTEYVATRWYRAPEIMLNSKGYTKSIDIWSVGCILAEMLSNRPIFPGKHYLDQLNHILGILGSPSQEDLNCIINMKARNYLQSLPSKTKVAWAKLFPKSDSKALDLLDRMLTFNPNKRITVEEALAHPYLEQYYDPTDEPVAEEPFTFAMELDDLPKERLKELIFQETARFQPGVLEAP

Tests used:
[1] = molecular target: endogenous Erk2 of HEK293T cells (UniProt P28482); assay: His-tag (TALON resin) pull-down from transfected HEK293T cells, Western blot with anti-ERK antibody
[2] = molecular target: endogenous Erk1 of HEK293T cells (UniProt P27361); assay: as above
[3] = molecular target: endogenous Erk2 of HEK293T cells (UniProt P28482); assay: His-tag pull-down (TALON resin) from lysate of HEK293T cells expressing the V5/His clone; Western blot with anti-ERK antibody
[4] = molecular target: endogenous Erk1 of HEK293T cells (UniProt P27361); assay: as above

Measured: binding

B1: Erk2 clone C expressed from pcDNA3.1-RNF8-V5/His in HEK293T cells (designed binder, not shown: small tags and cut ends)
chain: GEPGFFVTGDRAGGRSWCLRRVGMSAGWLLLEDGCEVTVGFGTGVTYQLVSKYLPSWFTYNHCVLKQNPEGQWTIMDNKSLTGVWLNRARLEPLRVYSIHQGDYIQLGAMTTSYENAEYEYEVTEEDWETIYPCLSPKNDQMIEKN
binds: all assays above

B2: Erk2 clone A expressed from pcDNA3.1-RNF8-V5/His in HEK293T cells (designed binder, not shown: small tags and cut ends)
chain: GEPGFFVTGDRAGGRSWCLRRVGMSAGWLLLEDGCEVTVGFGTGVTYQLVSKYLPSWFTYNHCVLKQNPEGQWTIMDNKSLTGVWLNRARLEPLRVYSIHQGDYIQLGGIWSDLENAEYEYEVTEEDWETIYPCLSPKNDQMIEKN
binds: all assays above

B3: Erk2 clone N expressed from pcDNA3.1-RNF8-V5/His in HEK293T cells (designed binder, not shown: small tags and cut ends)
chain: GEPGFFVTGDRAGGRSWCLRRVGMSAGWLLLEDGCEVTVGWGGGVTYQLVSKGYLWQRRTNHCVLKQNPEGQWTIMDNKVLGGVWLNRARLEPLRVYSIHQGDYIQLGLRSLLLENAEYEYEVTEEDWETIYPCLSPKNDQMIEKN
binds: all assays above
